Laboratory results reported in PubChem BioAssay AID248 (DTP/NCI, 2004).
The list is a part of this screen's results and no random one: it gathers tests that were run many times, whatever their T/C, doses with no T/C, and many T/C values between a quarter and a half above the control. Other doses and runs of a compound stand elsewhere. T/C gives the treated animals as a percentage of the vehicle group. Some entries give survivors of the animals treated and no T/C: the source holds a T/C of zero for them, seemingly a mark for toxic or unscored doses. Some doses without a T/C left all or most animals alive at the check, yet need not have been tolerated: the source hardly ever lists a survival T/C far under the control, and the zero likely stands for such cases as well. Survivors were counted at the toxicity check, usually on the fifth day, unless a day is given; later deaths do not show. Schedule codes are those of the source, taken here to give the interval after Q, in days (D) or hours (H), and the number of doses after X. Some schedules carry Z or #; the key to these is not given. Where survival is the endpoint, this PubChem deposit counts one and a half times the control or more as active, and values a quarter to a half above the control carry no call in these data; other NCI protocols may use other cut-offs. Some T/C values are followed by the survivors on the day toxicity was checked, most often the fifth; where none is given, no animal had died by that day. Some entries were tested several times; the results are listed from low to high.

Test system: L1210 leukemia ip in BDF1 mice, survival T/C
Experiment: NCI In Vivo Anticancer Drug Screen. Data for tumor model L1210 Leukemia (intraperitoneal) in B6D2F1 (BDF1) mice
Conditions: T/C endpoint: mean survival time, higher T/C = longer survival
[1] = dose: 200.0 mg/kg/injection, schedule: Q01DX001 (ip), vehicle: saline
[2] = dose: 400.0 mg/kg/injection, schedule: Q01DX001 (ip), vehicle: saline
[3] = dose: 400.0 mg/kg/injection, schedule: Q01DX009 (ip), vehicle: gum acacia
[4] = dose: 200.0 mg/kg/injection, schedule: Q01DX009 (ip), vehicle: saline with Tween-80
[5] = dose: 400.0 mg/kg/injection, schedule: Q04DX003 (ip), vehicle: saline
[6] = dose: 200.0 mg/kg/injection, schedule: Q04DX003 (ip), vehicle: saline
[7] = dose: 100.0 mg/kg/injection, schedule: Q04DX003 (ip), vehicle: Klucel (hydroxypropylcellulose) (HPC)

S=C(NCc1ccccc1)[S][Sb]([S]C(=S)NCc1ccccc1)[c]1ccccc1
survivor count (dose: 20.0 mg/kg/injection, schedule: Q01DX001 (ip), vehicle: saline): 3 of 6 | survivor count (dose: 40.0 mg/kg/injection, schedule: Q01DX001 (ip), vehicle: saline): 1 of 6 | survivor count (dose: 80.0 mg/kg/injection, schedule: Q01DX001 (ip), vehicle: saline): 1 of 6 | survivor count (dose: 100.0 mg/kg/injection, schedule: Q01DX001 (ip), vehicle: saline): 1 of 4 | survivor count [1]: 1 of 4 | survivor count [2]: 0 of 4

Nc1cccc2cccc([N+](=O)[O-])c12
survivor count (dose: 400.0 mg/kg/injection, schedule: Q01DX009 (ip), vehicle: saline): 3 of 6

CCCCOC(=O)c1ccc(OC(=O)NC(C)(C)C)cc1
T/C (dose: 100.0 mg/kg/injection, schedule: Q01DX009 (ip), vehicle: gum acacia): 96, 106, 115, 121 % of control | T/C (dose: 200.0 mg/kg/injection, schedule: Q01DX009 (ip), vehicle: gum acacia): 91, 109, 118, 125 % of control | T/C [3]: 86, 87, 89 % of control [5 of 6 alive] | survivor count [3]: 3 of 3

Cc1ccc(S(=O)(=O)Oc2ccc3ccccc3c2)cc1
survivor count [4]: 6 of 6 | survivor count (dose: 400.0 mg/kg/injection, schedule: Q01DX009 (ip), vehicle: saline with Tween-80): 6 of 6

CC1(O)Cn2c(nc3nccnc32)S1 (stereo not drawn)
survivor count (dose: 200.0 mg/kg/injection, schedule: Q01DX009 (ip), vehicle: saline): 0 of 6 | survivor count [5]: 3 of 6

CCOP(=O)(NCCCOC)OCC
survivor count (dose: 6.25 mg/kg/injection, schedule: Q04DX003 (ip), vehicle: saline): 2 of 6 | survivor count (dose: 12.5 mg/kg/injection, schedule: Q04DX003 (ip), vehicle: saline): 0 of 6 | survivor count (dose: 25.0 mg/kg/injection, schedule: Q01DX001 (ip), vehicle: acetone): 3 of 6 | survivor count (dose: 35.0 mg/kg/injection, schedule: Q01DX009 (ip), vehicle: acetone): 3 of 6 | survivor count (dose: 50.0 mg/kg/injection, schedule: Q01DX001 (ip), vehicle: acetone): 0 of 6 | survivor count (dose: 100.0 mg/kg/injection, schedule: Q01DX001 (ip), vehicle: acetone): 0 of 6 | survivor count (dose: 200.0 mg/kg/injection, schedule: Q01DX001 (ip), vehicle: acetone): 0 of 6 | survivor count (dose: 400.0 mg/kg/injection, schedule: Q01DX001 (ip), vehicle: acetone): 0 of 6

C=CCOCC(O)CN(C)CCCC (stereo not drawn)
survivor count (dose: 200.0 mg/kg/injection, schedule: Q01DX009 (ip), vehicle: Klucel (hydroxypropylcellulose) (HPC)): 0 of 6 | survivor count [6]: 0 of 6 | survivor count [5]: 0 of 6

OCc1cnc[nH]1
survivor count (dose: 100.0 mg/kg/injection, schedule: Q04DX002 (ip), vehicle: saline): 3 of 3

CCCCc1nc2c(O)ccc(O)c2nc1C
survivor count (dose: 300.0 mg/kg/injection, schedule: Q04DX003 (ip), vehicle: other): 3 of 6

COc1ccc(CCC(C(=O)O)c2ccc(OC)c(OC)c2)cc1OC (stereo not drawn)
T/C (dose: 100.0 mg/kg/injection, schedule: Q01DX009 (ip), vehicle: Klucel (hydroxypropylcellulose) (HPC)): 127 % of control | survivor count [7]: 6 of 6

CCCCCc1cc[n+](CC(=O)c2ccccc2)cc1
survivor count (dose: 50.0 mg/kg/injection, schedule: Q04DX003 (ip), vehicle: saline): 6 of 6 | survivor count [1]: 0 of 6 | survivor count [2]: 0 of 6

CCC1CN2C(=N1)c1ccccc1-c1cc(Cl)ccc12 (stereo not drawn)
T/C (dose: 40.0 mg/kg/injection, schedule: Q01DX009 (ip), vehicle: Klucel (hydroxypropylcellulose) (HPC)): 131 % of control [5 of 6 alive] | T/C (dose: 40.0 mg/kg/injection, schedule: Q01DX009 (ip), vehicle: saline): 138 % of control | T/C (dose: 50.0 mg/kg/injection, schedule: Q01DX009 (ip), vehicle: suspension in saline): 139 % of control | survivor count (dose: 80.0 mg/kg/injection, schedule: Q04DX003 (ip), vehicle: Klucel (hydroxypropylcellulose) (HPC)): 1 of 6 | survivor count [7]: 6 of 6 | survivor count (dose: 200.0 mg/kg/injection, schedule: Q04DX003 (ip), vehicle: Klucel (hydroxypropylcellulose) (HPC)): 0 of 6 | survivor count (dose: 400.0 mg/kg/injection, schedule: Q04DX003 (ip), vehicle: Klucel (hydroxypropylcellulose) (HPC)): 0 of 6

Nc1ccc(C(=O)C(=O)c2ccc(N)cc2)cc1
survivor count (dose: 300.0 mg/kg/injection, schedule: Q01DX001 (ip), vehicle: acetone): 0 of 6

CC(C)(O)CNC1CCCCC1
survivor count (dose: 150.0 mg/kg/injection, schedule: Q01DX001 (ip), vehicle: saline): 2 of 6 | survivor count (dose: 300.0 mg/kg/injection, schedule: Q01DX001 (ip), vehicle: saline): 0 of 6

Cc1ccc(N2C(=O)CC(Sc3ccccc3N)C2=O)cc1 (stereo not drawn)
survivor count [6]: 6 of 6

CCOC(=O)CC(C)=O.CCOC(=O)CC(C)=O.CCOC(=O)CC(C)=O.[Al]
survivor count (dose: 50.0 mg/kg/injection, schedule: Q01DX009 (ip), vehicle: Klucel (hydroxypropylcellulose) (HPC)): 3 of 3 | survivor count (dose: 100.0 mg/kg/injection, schedule: Q01DX005 (ip), vehicle: Klucel (hydroxypropylcellulose) (HPC)): 3 of 3 | survivor count (dose: 200.0 mg/kg/injection, schedule: Q01DX005 (ip), vehicle: Klucel (hydroxypropylcellulose) (HPC)): 3 of 3 | survivor count (dose: 400.0 mg/kg/injection, schedule: Q01DX005 (ip), vehicle: Klucel (hydroxypropylcellulose) (HPC)): 1 of 3

O=C1CCSC(=O)N1SC(Cl)(Cl)Cl
survivor count (dose: 50.0 mg/kg/injection, schedule: Q04DX003 (ip), vehicle: saline with Tween-80): 3 of 6 | survivor count (dose: 100.0 mg/kg/injection, schedule: Q01DX009 (ip), vehicle: saline with Tween-80): 0 of 6 | survivor count (dose: 100.0 mg/kg/injection, schedule: Q04DX003 (ip), vehicle: saline with Tween-80): 1 of 6 | survivor count (dose: 100.0 mg/kg/injection, schedule: Q04DX003 (ip), vehicle: saline): 0 of 6 | survivor count [4]: 0 of 6 | survivor count [6]: 1 of 6 | survivor count [5]: 0 of 6

CC[C@@H](c1ccc(O)cc1)[C@@H](CC)c1ccc(O)cc1
survivor count (dose: 250.0 mg/kg/injection, schedule: Q01DX Z (ip), vehicle: carboxymethylcellulose (CMC)): 0 of 6 | survivor count (dose: 500.0 mg/kg/injection, schedule: Q01DX Z (ip), vehicle: carboxymethylcellulose (CMC)): 0 of 6 | survivor count (dose: 1000.0 mg/kg/injection, schedule: Q01DX Z (ip), vehicle: carboxymethylcellulose (CMC)): 0 of 6
